These are yes or no findings as the source states them, for the method shown. Binding seen in cells or lysates may run through a third protein. For part of these data: Binding calls can cover weak binding; strength is not graded here.
Tests used:
Assay in all cases: co-IP; anti-HA high affinity matrix on 300 µg parasite lysate (150 mM NaCl, 50 mM TrisCl pH 7.4, 0.1% NP-40), overnight at 4°C; Western blot with HA, GCN5b or β-tubulin antibodies; parental RHΔku80 as control
[1] = target: AP2IX-7 endogenously tagged with a C-terminal 3xHA tag (Toxoplasma gondii (endogenous locus tagged in RHΔku80))
[2] = target: AP2X-5 endogenously tagged with a C-terminal 3xHA tag (Toxoplasma gondii (endogenous locus tagged in RHΔku80))
[3] = target: AP2X-8 endogenously tagged with a C-terminal 3xHA tag (Toxoplasma gondii (endogenous locus tagged in RHΔku80))

B1: GCN5b (endogenous) (enzyme, UniProt S8F3V2 1-1032)
chain: MAPSECPSDAPGGSGESRVSAEPSSSETPSSAVSSHSPHRAQLSSTQPKNPASPPTSDVSAPHVPLLGAEASGGDPSADPLGGEGAMERERQAFAEGPGLSARVETALSPQLRTTSGELQQAAADAAVSPDGEKEKEVANSRKGEDSGRLSAFVGRGSRRSSHAEPAEGPSLPSGADGRLPASGPWASEAPPAGRSASAPVPPVSPGFAFPSVTSCLPLNASIGDIALRLVKEILQPVLARDIQVDPPSPFRFTASGMAKALELSPVCFSPAYAASLRKSYAQMGTAGSCFYCVSAPCVCGAFAPPLAQARPAENKKRGRDACEGPQAEPPVGRGPRRGPNDSGAPVGQDLPGGPQAPGGPGGGFGAGQTFQDNLRQMCLFHPYSSVPPPKLIDMRYLCLFLSASADSPFACATRTGLCPFFGDGPFGPDGETRNGREGPLARSGDKVEGEKTFLSFVDETADFGDASVEKGFPDHARIGWEVVEEVAESLEAIFNTIQMETVEDRRDALTVPDEFYAQNYWEWRQFLLDKAPTGASVSRTFGRSLLRSLLLASPGTIAKDLQRTPISFAAGILFFRLCEEVGIEPETRHVLWRTVASSQPELRSRLVSESGLGFLCRDLGSAKEEEAGLITFKCVTNDRQPFSSRALVTVKNIFSRQLPKMPREYIVRLVFDRNHYTFCLNKEDTIIGGCCFRPYFQQKFAEIAFLAVTSTEQVKGYGTRLMNHLKEHVKKSGIEYFLTYADNFAVGYFRKQGFTQKISMPRERWYGYIKDYEGGTLMECHINPRINYLRLSEMLHDQQQVIKRATVSLKPLAVYPGLDFWKKNPGQTLSPSQIPGLLQCGWHPGEGAPRAGADGKGISEAERAFLGSTGAPDGAGSAGVGQGYMRPLHEQIMDILDALGKHHSAWPFLKPVSREEAPDYYDVILQPTDISTMKKKCKKKHYTTAQMFADEVQLMFKNCRQYNHQQTIYYKYANELDKFVTPKIQALKQAFQQQQKQLAQKGAASGTGVPPLRSPQGGDEGLVGAKHPTFF
Question: With B1 as the binder, how does the binding [1] read?
Answer: Its binding is “binds”.

Question: And the binding [2]?
Answer: The binding was “no binding”.

Question: And the binding [3]?
Answer: Its binding is “binds”.

Reference: article PMC3879359
